The results in this text go back to PMC5225440.

Amino acid sequences for entries named in this document (tags omitted).
UniProt O14974: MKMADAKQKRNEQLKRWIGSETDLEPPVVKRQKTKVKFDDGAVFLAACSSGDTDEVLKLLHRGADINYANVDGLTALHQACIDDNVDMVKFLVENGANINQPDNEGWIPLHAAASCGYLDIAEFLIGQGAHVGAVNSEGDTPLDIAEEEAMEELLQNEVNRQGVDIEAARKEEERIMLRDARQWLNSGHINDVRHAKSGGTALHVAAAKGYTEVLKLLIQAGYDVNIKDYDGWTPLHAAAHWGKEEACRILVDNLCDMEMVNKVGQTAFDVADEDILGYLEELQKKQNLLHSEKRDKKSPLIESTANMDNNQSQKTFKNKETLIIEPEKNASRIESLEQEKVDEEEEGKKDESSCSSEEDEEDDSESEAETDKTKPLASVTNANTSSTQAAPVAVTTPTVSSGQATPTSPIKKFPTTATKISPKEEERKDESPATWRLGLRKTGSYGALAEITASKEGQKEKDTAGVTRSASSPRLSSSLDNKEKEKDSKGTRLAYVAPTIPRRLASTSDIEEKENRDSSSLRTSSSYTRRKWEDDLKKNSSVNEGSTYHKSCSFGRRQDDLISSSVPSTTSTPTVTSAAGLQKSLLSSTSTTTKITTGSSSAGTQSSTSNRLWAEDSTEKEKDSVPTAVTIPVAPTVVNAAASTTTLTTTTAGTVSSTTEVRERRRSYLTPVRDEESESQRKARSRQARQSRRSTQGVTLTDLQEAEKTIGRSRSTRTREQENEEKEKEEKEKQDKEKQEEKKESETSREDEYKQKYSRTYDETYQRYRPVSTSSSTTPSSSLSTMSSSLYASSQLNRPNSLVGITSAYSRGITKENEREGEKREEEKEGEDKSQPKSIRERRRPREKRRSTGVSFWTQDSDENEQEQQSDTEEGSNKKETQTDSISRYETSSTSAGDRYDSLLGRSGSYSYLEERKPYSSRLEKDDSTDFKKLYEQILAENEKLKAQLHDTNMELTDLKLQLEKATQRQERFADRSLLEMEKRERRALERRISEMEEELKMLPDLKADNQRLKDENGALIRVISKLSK
UniProt O14744: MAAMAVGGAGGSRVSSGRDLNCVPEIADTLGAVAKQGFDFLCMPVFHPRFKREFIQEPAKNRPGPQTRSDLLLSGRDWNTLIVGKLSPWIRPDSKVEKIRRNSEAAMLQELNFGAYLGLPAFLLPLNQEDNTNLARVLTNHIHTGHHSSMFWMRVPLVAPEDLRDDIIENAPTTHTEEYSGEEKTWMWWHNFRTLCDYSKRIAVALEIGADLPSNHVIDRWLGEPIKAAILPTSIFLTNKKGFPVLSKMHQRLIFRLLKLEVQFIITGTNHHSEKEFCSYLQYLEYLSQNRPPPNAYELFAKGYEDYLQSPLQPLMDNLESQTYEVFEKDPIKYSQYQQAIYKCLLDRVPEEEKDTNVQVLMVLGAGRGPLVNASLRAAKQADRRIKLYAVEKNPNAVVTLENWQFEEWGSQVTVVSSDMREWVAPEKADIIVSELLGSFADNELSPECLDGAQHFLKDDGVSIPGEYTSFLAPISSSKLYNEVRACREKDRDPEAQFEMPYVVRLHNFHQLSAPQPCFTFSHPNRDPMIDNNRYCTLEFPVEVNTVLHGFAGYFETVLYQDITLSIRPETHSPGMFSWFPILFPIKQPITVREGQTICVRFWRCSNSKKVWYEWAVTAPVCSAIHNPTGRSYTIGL

The target in the experiment is Myosin phosphatase target subunit 1 (MYPT1), endogenous in HepG2 (human (endogenous in HepG2)) (UniProt O14974). As to the kind of experiment: co-IP; endogenous proteins of HepG2 cells; anti-MYPT1^1-296 and anti-PRMT5 antibodies on Protein-A Sepharose, non-immune rabbit serum as control; Western blot.

Results are given in words; binding and its absence hold for the method and conditions named. Binding seen in cells or lysates may run through a third protein. Some entries that bind do so weakly or less than the wild type.

With “Protein arginine methyltransferase 5 (PRMT5), endogenous in HepG2 (from UniProt O14744 1-637)”, the binding result was “binds”.
